Our source for the cell count values is PubChem BioAssay AID1665 (Sanford-Burnham Center for Chemical Genomics, 2009).

Molecules are shown by their SMILES. The list shows a part of the results.

A short description of the assay: beta-catenin nuclear localization change in HeLa – imaging, HeLa cells, immunofluorescence, high-content, primary screen (AID 1665). As to conditions: HeLa beta-catenin nuclear translocation, measured here: cell count, cytotoxicity flag, at 5 µM. Put shortly: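 Test system: human HeLa cells, endogenous beta-catenin. Times: 24 h compound exposure, 37°C. Measured by: beta-catenin immunofluorescence imaging with DAPI.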
As for `c1ccc(CN2CCC(Nc3ccccc3)CC2)cc1`, the cell count stood at 1180 cells.
In turn, `N#Cc1ccc(C(=O)NCC2(N3CCCCC3)CCCCC2)cc1` came in with a cell count of 1220 cells.
Compound `O=C(OC1CN2CCC1CC2)C1c2ccccc2C=Cc2ccccc21` (configuration not stated) registered a cell count of 550 cells.
Regarding `N/C(=N\O)c1c(N)no[n+]1[O-]`, the cell count is 977 cells.
`COc1ccc(C(=O)NCC2(N3CCOCC3)CCCCC2)cc1OC` yielded a cell count of 1070 cells.
`CCCOc1ccc(C)cc1CN(CCCl)CCCl` gave a cell count of 1160 cells.
Next, `COc1cc(OC)cc(C(=O)NCC2(N3CCOCC3)CCCCC2)c1`: 1150 cells; `CCC(CO)(C(=O)OC1CN2CCC1CC2)c1ccccc1` (configuration not stated): 1120 cells; `CC(C)(C)OC(=O)N1CCC(Nc2ccccc2)CC1`: 1130 cells.
`CCOc1ncccc1C(=O)NCC1(N2CCOCC2)CCCCC1`: the cell count turned out to be 1080 cells.
`CN(C)c1ccc(C(=O)NCC2(N3CCCCC3)CCCCC2)cc1` had a cell count of 1090 cells.
As for `CCN1CCC(Nc2cccc(F)c2)CC1`, the cell count was determined as 555 cells.
Compound `Fc1ccccc1NC1CCN(Cc2ccccc2)CC1` showed a cell count of 1220 cells.
The compound `Cc1ccc(OCC(C)C)c(CN(CCCl)CCCl)c1` came in with a cell count of 1100 cells.
In turn, `COc1ccc(NC2CCN(CCc3ccccc3)CC2)c(OC)c1` came in with a cell count of 963 cells.
For the compound `CCOc1ccc(C)cc1CN(CCCl)CCCl`, the cell count is 1130 cells.
Compound `N#CC1(Nc2ccccc2)CCN(Cc2ccccc2)CC1` had a cell count of 1340 cells.
`O=C(OC1CN2CCC1CC2)C1c2ccccc2Oc2ccccc21` (configuration not stated) gave a cell count of 936 cells.
`O=C(NCC1(N2CCOCC2)CCCCC1)c1cc2ccccc2o1` came in with a cell count of 1110 cells.
`COc1ccc(C(=O)NCC2(N3CCCCC3)CCCCC2)c(OC)c1OC` showed a cell count of 1030 cells.
`CC(C)c1ccc(NC2CCN(C(=O)OC(C)(C)C)CC2)cc1` showed a cell count of 1140 cells.
Next, `CN(C)c1cccc(C(=O)NCC2(N3CCCCC3)CCCCC2)c1`: 1100 cells; `COc1ccc(CN(CCCl)CCCl)cc1Cl`: 904 cells; `CN1CCN(CCOC(=O)C(O)(c2ccccc2)c2ccccc2)CC1`: 986 cells.
With `COc1ccc(NC2CCN(C(=O)OC(C)(C)C)CC2)cc1`, the cell count is 1180 cells.
For `N#CC1(Nc2ccccc2)CCN(CCc2ccccc2)CC1`, the cell count was 1350 cells.
On to `O=C(NCC1(N2CCCCC2)CCCCC1)c1cccc([N+](=O)[O-])c1`, for which the cell count stood at 1100 cells.
